No constants are given. Whether binding was seen depends on the method and setting. Some binding calls cover weakened binding; strength is not graded here.
The binders below were run against GPRC5D (reagent of the screening ELISA) (UniProt Q9NZD1) (assay: ELISA affinity screen after DNA and cell immunisation of BALB/c mice (anti-human Fc capture, OD450)).

By UniProt entry, the sequences of proteins in these tests, tags left out.
UniProt Q9NZD1: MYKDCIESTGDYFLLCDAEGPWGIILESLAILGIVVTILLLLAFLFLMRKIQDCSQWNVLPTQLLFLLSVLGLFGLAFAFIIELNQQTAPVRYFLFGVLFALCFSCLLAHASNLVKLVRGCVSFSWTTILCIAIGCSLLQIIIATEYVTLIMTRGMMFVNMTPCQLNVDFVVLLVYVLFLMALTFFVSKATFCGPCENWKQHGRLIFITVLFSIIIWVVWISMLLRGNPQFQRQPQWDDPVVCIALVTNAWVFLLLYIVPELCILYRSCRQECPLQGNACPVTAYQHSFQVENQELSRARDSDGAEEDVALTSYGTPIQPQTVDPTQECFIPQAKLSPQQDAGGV

Row | Binder | binding
1 | ICA2002-18D8C7-1-hIgG1 (antibody, V domains shown) VH: EVQLVESGGDLVKPGGSLKLSCAASGFTFSNYGMSWVRQTPDKRLEWVATISNGGSYTYYPDNVKGRFTISRDNAKNTLYLQMSSLKSEDTATYYCARHAWDYWGQGTTLTVSS VL: QIVLTQSPAIMSAFPGEKVTMTCNASSSVSYMYWYQQKSGTSPKRWIYDTSKLASGVPARFSGSGSGTSYSLTISIMEAEDAATYYCQHWSTNPLTFGAGTKLELK | binds
2 | ICA2002-50A5-1-hIgG1 (antibody, V domains shown) VH: EVQLQQSGPELVKPGASVKISCKASGFSFTGYTMNWVKQTHGKNLEWIGLINPYTGGTTYKQKFKGKATLTVDKSSNTAYMELLSLTSEDSAVYYCTRGGFYRYDGDYWGQGTTLTVSS VL: DIQMTQSPSSLSASLGERVSLTCRASQDIGNYLTWLQQEPDGTIKRLIYATSSLHSGVPKRFSGSRSGSDYSLTISSLESEDFVDYYCLQYSSSPWTFGGGTKLEIR | binds
3 | ICA2002-50C1-1-hIgG1 (antibody, V domains shown) VH: EVQLQQSGPELVKPGASVKISCKASGFSFTGYTMNWVKQSHGKNLEWIGLINPYNGGTTYKQKFKGKATLTVDKSSNTAYMELLSLTSEDSAVYYCTRGGFYRYDGDYWGQGTTLTVSS VL: VIQLTQSPSSLSASLGERVSLTCRASQDIGNYLTWLQKEPNGTIKRLIYATFSLHSGVPKRFSGSRSGSDYSLTISSLESEDFVDYYCLQYSSSPWTFGGGTKLEIR | binds

Source: patent CN117700558A
